PubChem BioAssay AID1259254, NCATS | 2017
Screen: 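Genome-wide screen for genes that prevent DNA re-replication in cancer cells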 (primary screen). Cell system: human HCT116 colorectal cancer cells. Reagent: single siRNA against human genes. Time to read-out: 3 days. Detection: 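Nuclei stained with Hoechst and imaged; cell-cycle phase assigned by DNA content; G2 share scaled per plate, non-targeting siRNA 0%, GMNN siRNA 100%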. Scale: G2 robust z-score: higher = more G2 cells, more excess DNA replication. Rule for the call: 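An siRNA counts as active if its G2 robust z-score lies at least 5 MADs above the screen median; here such calls match roughly 38% of GMNN control or more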.
This is a random part of about 59,000 reagents tested. Of all reagents, about 1,550 (2.6%) are marked active. 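G2 share is only a proxy for re-replication; each gene was hit by three separate siRNAs, and active genes were retested.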 The numbers tell different reagents against one gene apart. Further read-outs or replicates are left out here. The record does not give: the amount of reagent.

{"gene": "AZIN1 (GeneID 51582)", "siRNA no.": 1, "G2 robust z-score": 1.41, "outcome": "inactive"}
{"gene": "AZIN1 (GeneID 51582)", "siRNA no.": 2, "G2 robust z-score": 1.6, "outcome": "inactive"}
{"gene": "AZIN1 (GeneID 51582)", "siRNA no.": 3, "G2 robust z-score": -0.791, "outcome": "inactive"}
{"gene": "ADCY8 (GeneID 114)", "siRNA no.": 1, "G2 robust z-score": -1.36, "outcome": "inactive"}
{"gene": "ADCY8 (GeneID 114)", "siRNA no.": 2, "G2 robust z-score": 0.988, "outcome": "inactive"}
{"gene": "ADCY8 (GeneID 114)", "siRNA no.": 3, "G2 robust z-score": 0.306, "outcome": "inactive"}

Laid out differently: results already given
gene | siRNA no. | G2 robust z-score | outcome
ADCY8 (GeneID 114) | 1 | -1.36 | inactive
ADCY8 (GeneID 114) | 2 | 0.988 | inactive

Further records follow:
{"gene": "NAA15 (GeneID 80155)", "siRNA no.": 1, "G2 robust z-score": -1.22, "outcome": "inactive"}
{"gene": "NAA15 (GeneID 80155)", "siRNA no.": 2, "G2 robust z-score": 0.227, "outcome": "inactive"}
{"gene": "NAA15 (GeneID 80155)", "siRNA no.": 3, "G2 robust z-score": 2.13, "outcome": "inactive"}
{"gene": "CRYGC (GeneID 1420)", "siRNA no.": 1, "G2 robust z-score": 0.458, "outcome": "inactive"}
{"gene": "CRYGC (GeneID 1420)", "siRNA no.": 2, "G2 robust z-score": -0.385, "outcome": "inactive"}
{"gene": "CRYGC (GeneID 1420)", "siRNA no.": 3, "G2 robust z-score": -0.818, "outcome": "inactive"}
